Reference: patent publication US20070219767A1, “ATOMIC COORDINATES OF ALBUMIN DRUG COMPLEXES AND METHOD OF USE OF PHARMACEUTICAL DEVELOPMENT” (priority 2003, published 2007)
Entries after “also recorded” stand apart in the source; their conditions may differ.

By UniProt entry, the sequences of proteins in these tests, tags left out. Residues count along the entry.
UniProt P02768, 25-609: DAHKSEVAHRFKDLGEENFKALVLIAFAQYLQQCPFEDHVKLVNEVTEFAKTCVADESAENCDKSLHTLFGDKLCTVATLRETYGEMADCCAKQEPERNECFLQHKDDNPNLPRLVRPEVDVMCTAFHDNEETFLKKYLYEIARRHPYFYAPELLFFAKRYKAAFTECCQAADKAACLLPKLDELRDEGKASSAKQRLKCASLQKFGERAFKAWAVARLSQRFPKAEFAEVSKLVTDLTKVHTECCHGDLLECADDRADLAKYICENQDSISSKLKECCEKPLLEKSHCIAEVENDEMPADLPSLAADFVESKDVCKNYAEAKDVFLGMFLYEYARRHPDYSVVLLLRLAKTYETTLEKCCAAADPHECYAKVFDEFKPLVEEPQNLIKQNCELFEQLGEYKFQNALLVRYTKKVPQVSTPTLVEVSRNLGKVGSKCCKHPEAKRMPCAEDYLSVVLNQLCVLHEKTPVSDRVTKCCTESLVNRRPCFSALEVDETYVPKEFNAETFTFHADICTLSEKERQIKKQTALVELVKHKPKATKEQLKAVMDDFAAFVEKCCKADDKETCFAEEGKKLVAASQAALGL

Target: human serum albumin (Homo sapiens, UniProt P02768)
Assay: X-ray crystallography of human serum albumin/drug complexes: binding location
Parameters: Domain I (1 through 192); Domain II (193 through 395);Domain III (396 THROUGH 585)
Details: Table II, Phase II; refined coordinates; listed residues within 5 Å of bound ligand
Description: This information was derived from crystallization of the protein/ligand to create a protein/ligand complex and determining the atomic structure of the resulting complex by x-ray diffraction. The ligand may be any ligand capable of binding to the human serum albumin protein, and is preferably a ligand that binds to one of the binding sites described herein.
One method of obtaining information regarding the structural; characteristics of the albumin binding regions is through protein crystallization processes.
By applying standard crystallization protocols to the above described crystallizable compositions, crystals of the human serum albumin complex may be obtained. This, an even further aspect of this invention relates to a method of preparing human serum albumin complex-containing crystals. The method comprises the steps of • (a) obtaining a crystallizable composition comprising a human serum albumin protein, divalent cations, and a ligand capable of binding to the protein, and • (b) subjecting the composition of step (a) to conditions which promote crystallization.
The “active site binding pockets” or “active site” of human serum albumin refers to one of several areas determined experimentally on the human serum albumin protein surface where substrates bind.

Compound: COc1ccc2cc([C@H](C)C(=O)O)ccc2c1 [Naproxen]
- Binding site of the Drug-Albumin Complex (site heading the list of contacting residues): Site IB, L115, V116, R117, P118, M123, L135, Y138, L139, I142,; also recorded: Site IIA-IIB, R209, A210, A213, D324, L327, G328, L331, L347,; also recorded: Site IIIA, L387, I388, N391, C392, F403, L407, R410, Y411, K414,
